Measured values published in publication PMC6761483.
Results are given in words; binding and its absence hold for the method and conditions named. Some entries that bind do so weakly or less than the wild type.

Molecular target: T1, KELCH-repeat region of AtFKF1 (amino acids 284 to 619) (Arabidopsis thaliana) (UniProt Q9C9W9)
T1 sequence: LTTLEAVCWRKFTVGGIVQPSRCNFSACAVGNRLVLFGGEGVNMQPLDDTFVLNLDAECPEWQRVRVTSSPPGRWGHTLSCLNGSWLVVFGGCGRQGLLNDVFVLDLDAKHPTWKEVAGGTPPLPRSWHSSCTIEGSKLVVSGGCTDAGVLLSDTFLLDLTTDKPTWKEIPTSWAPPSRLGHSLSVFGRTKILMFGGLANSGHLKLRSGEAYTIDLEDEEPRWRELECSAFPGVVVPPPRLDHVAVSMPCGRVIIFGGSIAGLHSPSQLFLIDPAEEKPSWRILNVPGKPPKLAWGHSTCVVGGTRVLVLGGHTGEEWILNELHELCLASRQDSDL
Test: two-hybrid; prey in pDEST22 (AD) in yeast PJ69-4A mated with bait in pDEST32 (BD) in PJ69-4α; diploids plated on SD -Trp -Leu -His with 0, 1, 2, 10, 25, 50 and 100 mM 3-AT; colonies over 11 days at 28°C; two independent clones

B1: AtCDF1 (protein, UniProt Q8W1E3 1-298)
chain: MLETKDPAIKLFGMKIPFPTVLEVADEEEEKNQNKTLTDQSEKDKTLKKPTKILPCPRCNSMETKFCYYNNYNVNQPRHFCKACQRYWTSGGTMRSVPIGAGRRKNKNNSPTSHYHHVTISETNGPVLSFSLGDDQKVSSNRFGNQKLVARIENNDERSNNNTSNGLNCFPGVSWPYTWNPAFYPVYPYWSMPVLSSPVSSSPTSTLGKHSRDEDETVKQKQRNGSVLVPKTLRIDDPNEAAKSSIWTTLGIKNEVMFNGFGSKKEVKLSNKEETETSLVLCANPAALSRSINFHEQM
binding: binds
